From the supplement of paper PMC12823440, “Inhibitors supercharge kinase turnover through native proteolytic circuits” (Nature, 2025)
Structures can show the parent of a compound that is named as a salt. The list shows a part of the results. The calls rarely recur for the same compound in another form.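 Kinases, fused to nanoluciferase, were expressed in K562 cells; luminescence was measured every 4 h from 2 to 18 h as percent of control (DMSO = 100%, positive control = 0%). A time point is decreased if signal falls significantly (2 sigma). Hits were called by the authors by a rule that is not shown; the count of time points alone does not decide it.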

By UniProt entry, the sequences of proteins in these tests, tags left out. Where a name states a change or a piece, a line headed by the entry shows the natural chain unless it says otherwise.
UniProt P07949, whole entry, looked up: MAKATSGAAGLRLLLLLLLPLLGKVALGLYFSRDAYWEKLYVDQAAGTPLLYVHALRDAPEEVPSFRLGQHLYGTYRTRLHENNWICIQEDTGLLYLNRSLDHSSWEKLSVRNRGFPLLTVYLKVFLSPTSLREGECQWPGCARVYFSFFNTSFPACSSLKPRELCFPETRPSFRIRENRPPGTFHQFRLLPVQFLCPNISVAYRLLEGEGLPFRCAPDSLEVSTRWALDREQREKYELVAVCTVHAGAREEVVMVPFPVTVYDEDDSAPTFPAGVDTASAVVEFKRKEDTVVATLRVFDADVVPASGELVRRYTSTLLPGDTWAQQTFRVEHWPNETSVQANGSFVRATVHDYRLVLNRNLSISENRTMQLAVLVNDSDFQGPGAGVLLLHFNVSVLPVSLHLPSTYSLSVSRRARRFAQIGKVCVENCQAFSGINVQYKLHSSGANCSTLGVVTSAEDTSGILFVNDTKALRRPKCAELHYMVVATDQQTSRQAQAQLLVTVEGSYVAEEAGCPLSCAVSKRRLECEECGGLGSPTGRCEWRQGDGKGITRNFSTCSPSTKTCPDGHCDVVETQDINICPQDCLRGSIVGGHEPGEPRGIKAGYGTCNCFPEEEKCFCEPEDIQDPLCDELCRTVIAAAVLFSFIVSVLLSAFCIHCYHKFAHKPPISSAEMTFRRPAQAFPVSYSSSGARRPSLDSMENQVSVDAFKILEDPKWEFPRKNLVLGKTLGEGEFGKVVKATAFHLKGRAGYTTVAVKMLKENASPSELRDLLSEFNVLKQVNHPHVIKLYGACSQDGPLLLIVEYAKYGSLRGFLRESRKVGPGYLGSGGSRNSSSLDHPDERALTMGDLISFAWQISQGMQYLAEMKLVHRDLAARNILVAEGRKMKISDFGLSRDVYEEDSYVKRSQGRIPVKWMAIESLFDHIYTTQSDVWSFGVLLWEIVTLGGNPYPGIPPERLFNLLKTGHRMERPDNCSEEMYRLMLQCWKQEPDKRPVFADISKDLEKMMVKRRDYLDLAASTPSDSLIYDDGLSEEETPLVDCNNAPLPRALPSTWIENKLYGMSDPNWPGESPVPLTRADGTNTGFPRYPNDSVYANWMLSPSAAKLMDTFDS
UniProt P07949, whole entry M918T, looked up: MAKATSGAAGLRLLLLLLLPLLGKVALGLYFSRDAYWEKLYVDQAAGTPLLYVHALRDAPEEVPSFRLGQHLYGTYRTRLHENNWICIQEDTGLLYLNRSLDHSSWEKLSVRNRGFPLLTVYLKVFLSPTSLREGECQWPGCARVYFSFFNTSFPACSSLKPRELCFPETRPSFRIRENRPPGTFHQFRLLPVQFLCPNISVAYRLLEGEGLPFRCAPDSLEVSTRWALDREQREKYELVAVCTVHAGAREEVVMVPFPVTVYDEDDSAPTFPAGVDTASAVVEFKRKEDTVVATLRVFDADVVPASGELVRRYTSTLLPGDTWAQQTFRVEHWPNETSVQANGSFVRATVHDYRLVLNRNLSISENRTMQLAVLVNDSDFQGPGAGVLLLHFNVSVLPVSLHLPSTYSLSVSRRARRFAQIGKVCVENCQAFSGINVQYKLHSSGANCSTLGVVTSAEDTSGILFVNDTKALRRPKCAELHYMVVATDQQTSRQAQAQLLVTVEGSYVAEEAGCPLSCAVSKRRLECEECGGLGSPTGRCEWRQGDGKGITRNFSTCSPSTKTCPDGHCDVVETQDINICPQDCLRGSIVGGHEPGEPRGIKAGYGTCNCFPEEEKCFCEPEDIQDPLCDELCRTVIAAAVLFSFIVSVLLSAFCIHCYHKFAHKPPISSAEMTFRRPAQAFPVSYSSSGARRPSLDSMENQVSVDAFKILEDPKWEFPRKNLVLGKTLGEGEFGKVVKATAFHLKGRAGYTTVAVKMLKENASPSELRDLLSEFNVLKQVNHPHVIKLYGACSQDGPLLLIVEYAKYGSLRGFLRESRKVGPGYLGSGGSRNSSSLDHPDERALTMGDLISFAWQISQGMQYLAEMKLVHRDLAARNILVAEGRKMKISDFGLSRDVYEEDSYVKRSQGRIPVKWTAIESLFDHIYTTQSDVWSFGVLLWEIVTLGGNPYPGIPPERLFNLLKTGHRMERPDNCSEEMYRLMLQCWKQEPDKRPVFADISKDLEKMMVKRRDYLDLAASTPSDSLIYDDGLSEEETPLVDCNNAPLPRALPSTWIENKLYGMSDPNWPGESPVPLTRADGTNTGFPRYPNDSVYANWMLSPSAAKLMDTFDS
UniProt Q9BRS2: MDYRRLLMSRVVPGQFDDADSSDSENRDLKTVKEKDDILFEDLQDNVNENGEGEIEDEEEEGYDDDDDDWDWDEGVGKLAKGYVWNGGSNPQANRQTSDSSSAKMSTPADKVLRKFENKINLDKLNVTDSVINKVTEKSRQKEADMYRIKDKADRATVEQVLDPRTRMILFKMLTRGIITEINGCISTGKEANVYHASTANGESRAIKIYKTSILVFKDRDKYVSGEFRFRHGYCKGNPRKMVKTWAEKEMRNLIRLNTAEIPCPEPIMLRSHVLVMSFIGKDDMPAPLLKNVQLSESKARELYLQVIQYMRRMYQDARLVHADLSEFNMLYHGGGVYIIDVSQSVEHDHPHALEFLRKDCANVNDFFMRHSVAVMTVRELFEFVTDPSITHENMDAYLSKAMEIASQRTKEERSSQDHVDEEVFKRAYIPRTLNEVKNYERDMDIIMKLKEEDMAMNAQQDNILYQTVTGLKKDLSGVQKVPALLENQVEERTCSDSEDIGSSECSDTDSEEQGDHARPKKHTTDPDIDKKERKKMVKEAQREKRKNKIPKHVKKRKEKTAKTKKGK
UniProt Q13546: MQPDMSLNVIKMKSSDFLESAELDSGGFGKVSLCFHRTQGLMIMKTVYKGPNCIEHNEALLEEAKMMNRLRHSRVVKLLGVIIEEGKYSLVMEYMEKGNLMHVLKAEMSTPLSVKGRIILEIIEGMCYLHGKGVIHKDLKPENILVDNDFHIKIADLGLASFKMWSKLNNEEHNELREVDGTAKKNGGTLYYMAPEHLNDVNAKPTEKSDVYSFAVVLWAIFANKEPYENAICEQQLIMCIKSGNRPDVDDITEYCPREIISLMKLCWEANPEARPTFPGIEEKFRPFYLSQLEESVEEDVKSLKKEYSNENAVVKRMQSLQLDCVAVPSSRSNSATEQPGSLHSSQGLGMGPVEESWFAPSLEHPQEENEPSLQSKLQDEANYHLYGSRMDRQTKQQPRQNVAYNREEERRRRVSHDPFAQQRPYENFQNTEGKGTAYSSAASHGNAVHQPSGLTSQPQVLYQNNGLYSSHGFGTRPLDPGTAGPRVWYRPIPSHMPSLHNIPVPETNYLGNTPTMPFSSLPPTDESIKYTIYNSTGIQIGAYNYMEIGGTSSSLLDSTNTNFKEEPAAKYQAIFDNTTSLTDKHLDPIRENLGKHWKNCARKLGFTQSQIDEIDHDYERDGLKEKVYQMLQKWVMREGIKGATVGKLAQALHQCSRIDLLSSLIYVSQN
UniProt Q15418, whole entry: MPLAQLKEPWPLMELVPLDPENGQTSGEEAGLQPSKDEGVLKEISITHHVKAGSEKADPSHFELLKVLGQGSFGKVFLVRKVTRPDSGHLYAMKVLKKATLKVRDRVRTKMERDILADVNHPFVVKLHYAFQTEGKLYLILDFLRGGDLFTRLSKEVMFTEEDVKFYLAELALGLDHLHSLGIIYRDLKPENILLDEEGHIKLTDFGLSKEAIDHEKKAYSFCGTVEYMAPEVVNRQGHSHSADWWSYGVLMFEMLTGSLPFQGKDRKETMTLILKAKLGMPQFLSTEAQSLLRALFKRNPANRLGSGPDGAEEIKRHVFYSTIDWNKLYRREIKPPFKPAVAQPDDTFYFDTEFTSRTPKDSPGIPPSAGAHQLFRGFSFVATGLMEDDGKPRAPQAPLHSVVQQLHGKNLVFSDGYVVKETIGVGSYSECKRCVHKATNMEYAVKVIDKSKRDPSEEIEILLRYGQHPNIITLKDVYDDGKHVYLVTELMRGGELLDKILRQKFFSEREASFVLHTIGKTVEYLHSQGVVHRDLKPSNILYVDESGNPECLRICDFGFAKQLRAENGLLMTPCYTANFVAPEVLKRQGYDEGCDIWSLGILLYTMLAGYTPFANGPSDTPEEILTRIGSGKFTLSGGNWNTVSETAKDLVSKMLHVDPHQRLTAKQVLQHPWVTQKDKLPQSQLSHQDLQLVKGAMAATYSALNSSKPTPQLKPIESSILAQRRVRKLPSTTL
UniProt Q9NYA1, whole entry: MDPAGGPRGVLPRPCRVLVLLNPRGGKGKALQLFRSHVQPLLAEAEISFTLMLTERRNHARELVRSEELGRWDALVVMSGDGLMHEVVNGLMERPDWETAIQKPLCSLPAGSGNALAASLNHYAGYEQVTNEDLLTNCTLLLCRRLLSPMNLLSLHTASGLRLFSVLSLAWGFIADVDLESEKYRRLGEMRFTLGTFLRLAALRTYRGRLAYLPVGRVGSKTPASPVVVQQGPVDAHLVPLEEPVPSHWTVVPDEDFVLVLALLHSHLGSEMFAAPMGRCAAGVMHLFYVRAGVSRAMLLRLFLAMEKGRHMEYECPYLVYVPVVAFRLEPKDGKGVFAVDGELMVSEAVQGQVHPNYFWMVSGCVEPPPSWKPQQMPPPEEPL
UniProt Q15208: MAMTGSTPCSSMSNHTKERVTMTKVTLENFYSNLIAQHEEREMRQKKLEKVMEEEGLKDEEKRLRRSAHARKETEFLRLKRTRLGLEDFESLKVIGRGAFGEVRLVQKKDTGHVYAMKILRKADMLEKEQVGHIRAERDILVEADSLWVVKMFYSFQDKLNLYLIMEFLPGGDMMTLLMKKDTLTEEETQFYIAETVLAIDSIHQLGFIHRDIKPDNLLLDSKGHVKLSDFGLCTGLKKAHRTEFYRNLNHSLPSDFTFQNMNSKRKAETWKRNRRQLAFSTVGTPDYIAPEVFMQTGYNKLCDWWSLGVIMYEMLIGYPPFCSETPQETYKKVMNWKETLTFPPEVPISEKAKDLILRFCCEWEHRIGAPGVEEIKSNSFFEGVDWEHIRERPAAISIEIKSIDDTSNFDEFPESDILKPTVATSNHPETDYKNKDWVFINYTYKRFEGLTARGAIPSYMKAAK
UniProt P07947, whole entry, looked up: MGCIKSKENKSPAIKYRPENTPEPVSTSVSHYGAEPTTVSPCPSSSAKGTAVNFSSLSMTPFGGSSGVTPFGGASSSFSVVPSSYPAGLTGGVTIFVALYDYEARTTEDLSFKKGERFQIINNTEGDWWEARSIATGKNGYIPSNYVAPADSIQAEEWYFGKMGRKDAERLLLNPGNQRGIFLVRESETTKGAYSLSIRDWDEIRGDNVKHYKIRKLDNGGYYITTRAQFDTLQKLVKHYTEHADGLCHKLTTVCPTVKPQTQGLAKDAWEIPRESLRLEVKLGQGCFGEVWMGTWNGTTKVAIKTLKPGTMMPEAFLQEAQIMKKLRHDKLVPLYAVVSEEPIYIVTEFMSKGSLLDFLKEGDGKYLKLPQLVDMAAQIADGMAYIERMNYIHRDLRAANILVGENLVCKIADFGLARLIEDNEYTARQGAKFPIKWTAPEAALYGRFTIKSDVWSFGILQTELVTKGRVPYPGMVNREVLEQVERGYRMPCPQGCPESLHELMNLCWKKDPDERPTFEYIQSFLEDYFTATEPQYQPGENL
UniProt P11802: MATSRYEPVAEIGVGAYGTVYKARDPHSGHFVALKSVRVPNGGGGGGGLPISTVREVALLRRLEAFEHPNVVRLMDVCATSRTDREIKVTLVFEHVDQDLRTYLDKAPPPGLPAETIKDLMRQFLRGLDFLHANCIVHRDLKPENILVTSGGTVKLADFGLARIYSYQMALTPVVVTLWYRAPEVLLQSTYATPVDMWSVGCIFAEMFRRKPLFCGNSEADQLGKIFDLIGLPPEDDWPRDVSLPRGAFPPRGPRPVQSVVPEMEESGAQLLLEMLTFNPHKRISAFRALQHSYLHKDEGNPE
UniProt P50613: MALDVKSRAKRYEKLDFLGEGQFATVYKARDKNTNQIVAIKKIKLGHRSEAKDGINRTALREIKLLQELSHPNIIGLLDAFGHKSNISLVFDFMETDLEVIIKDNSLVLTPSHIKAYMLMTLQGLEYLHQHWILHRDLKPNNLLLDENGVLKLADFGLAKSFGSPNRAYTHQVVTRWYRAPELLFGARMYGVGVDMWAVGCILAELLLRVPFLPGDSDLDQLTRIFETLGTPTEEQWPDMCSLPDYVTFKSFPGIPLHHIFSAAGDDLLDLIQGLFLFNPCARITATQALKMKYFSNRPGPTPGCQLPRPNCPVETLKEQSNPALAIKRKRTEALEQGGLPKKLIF

Key:
Conditions in all cases: K562, 2-18 h
RET = RET (UniProt P07949); assay: kinase-Nluc reporter destabilization hit call (1 = scored as downregulated) (binary); higher = compound decreases kinase abundance
[1] = molecular target: RET_M918T (clone: RET_mut) (UniProt P07949); assay: as above
RIOK1 = RIOK1 (UniProt Q9BRS2); assay: as above
RIPK1 = RIPK1 (UniProt Q13546); assay: as above
RIPK2 = RIPK2 (UniProt O43353); assay: as above
ROR2 = ROR2 (UniProt Q01974); assay: as above
RPS6KA1 = RPS6KA1 (UniProt Q15418); assay: as above
SPHK1 = SPHK1 (UniProt Q9NYA1); assay: as above
SRC = SRC (UniProt P12931); assay: as above
STK24 = STK24 (UniProt Q9Y6E0); assay: as above
STK38 = STK38 (UniProt Q15208); assay: as above
SYK = SYK (UniProt P43405); assay: as above
TEC = TEC (UniProt P42680); assay: as above
TYK2 = TYK2 (UniProt P29597); assay: as above
ULK3 = ULK3 (UniProt Q6PHR2); assay: as above
YES1 = YES1 (UniProt P07947); assay: as above
ZAK = ZAK (UniProt Q9NYL2); assay: as above
ZAP70 = ZAP70 (UniProt P43403); assay: as above
CDK4 = CDK4 (UniProt P11802); assay: number of time points (of 4; 2 h point missing) at which kinase-Nluc abundance scored as decreased, DMSO-normalised (count); higher = more persistent destabilization
CDK7 = CDK7 (UniProt P50613); assay: as above

SMILES	kinase-Nluc reporter destabilization hit call (RET; 10 µM)	kinase-Nluc reporter destabilization hit call ([1]; 10 µM)	kinase-Nluc reporter destabilization hit call (RIOK1; 10 µM)	kinase-Nluc reporter destabilization hit call (RIPK1; 10 µM)	kinase-Nluc reporter destabilization hit call (RIPK2; 10 µM)	kinase-Nluc reporter destabilization hit call (ROR2; 10 µM)	kinase-Nluc reporter destabilization hit call (RPS6KA1; 10 µM)	kinase-Nluc reporter destabilization hit call (SPHK1; 10 µM)	kinase-Nluc reporter destabilization hit call (SRC; 10 µM)	kinase-Nluc reporter destabilization hit call (STK24; 10 µM)	kinase-Nluc reporter destabilization hit call (STK38; 10 µM)	kinase-Nluc reporter destabilization hit call (SYK; 10 µM)	kinase-Nluc reporter destabilization hit call (TEC; 10 µM)	kinase-Nluc reporter destabilization hit call (TYK2; 10 µM)	kinase-Nluc reporter destabilization hit call (ULK3; 10 µM)	kinase-Nluc reporter destabilization hit call (YES1; 10 µM)	kinase-Nluc reporter destabilization hit call (ZAK; 10 µM)	kinase-Nluc reporter destabilization hit call (ZAP70; 10 µM)	number of time points (CDK4; 10 µM)	number of time points (CDK7; 10 µM)	kinase-Nluc reporter destabilization hit call (RET; 2.5 µM)	kinase-Nluc reporter destabilization hit call ([1]; 2.5 µM)	kinase-Nluc reporter destabilization hit call (RIOK1; 2.5 µM)	kinase-Nluc reporter destabilization hit call (RIPK1; 2.5 µM)	kinase-Nluc reporter destabilization hit call (RIPK2; 2.5 µM)	kinase-Nluc reporter destabilization hit call (ROR2; 2.5 µM)	kinase-Nluc reporter destabilization hit call (RPS6KA1; 2.5 µM)	kinase-Nluc reporter destabilization hit call (SPHK1; 2.5 µM)	kinase-Nluc reporter destabilization hit call (SRC; 2.5 µM)	kinase-Nluc reporter destabilization hit call (STK24; 2.5 µM)	kinase-Nluc reporter destabilization hit call (STK38; 2.5 µM)	kinase-Nluc reporter destabilization hit call (SYK; 2.5 µM)	kinase-Nluc reporter destabilization hit call (TEC; 2.5 µM)	kinase-Nluc reporter destabilization hit call (TYK2; 2.5 µM)	kinase-Nluc reporter destabilization hit call (ULK3; 2.5 µM)	kinase-Nluc reporter destabilization hit call (YES1; 2.5 µM)	kinase-Nluc reporter destabilization hit call (ZAK; 2.5 µM)	kinase-Nluc reporter destabilization hit call (ZAP70; 2.5 µM)	number of time points (CDK4; 2.5 µM)	number of time points (CDK7; 2.5 µM)
CC(C)(C)n1nc(-c2cccc3ccccc23)c2c(N)ncnc21 [1-Naphthyl PP1]	inactive: 0	inactive: 0	inactive: 0	inactive: 0	inactive: 0	inactive: 0	inactive: 0	inactive: 0	inactive: 0	inactive: 0	inactive: 0	inactive: 0	inactive: 0	inactive: 0	inactive: 0	inactive: 0	inactive: 0	inactive: 0	0	0																				
CNC(=O)c1ccccc1Nc1cc(Nc2ccc(N3CCOCC3)cc2OC)ncc1C(F)(F)F	inactive: 0	inactive: 0	inactive: 0	inactive: 0	inactive: 0	inactive: 0	inactive: 0	inactive: 0	inactive: 0	inactive: 0	inactive: 0	inactive: 0	inactive: 0	inactive: 0	inactive: 0	inactive: 0	inactive: 0	inactive: 0	0	0																				
COc1ccc(S(=O)(=O)N(CCO)c2ccccc2CN(C)C/C=C/c2ccc(Cl)cc2)cc1 [KN-93 (hydrochloride)]																					inactive: 0	inactive: 0	inactive: 0	inactive: 0	inactive: 0	inactive: 0	inactive: 0	inactive: 0	inactive: 0	inactive: 0	inactive: 0	inactive: 0	inactive: 0	inactive: 0	inactive: 0	inactive: 0	inactive: 0	inactive: 0	0	0
Cn1ncc(Cl)c1-c1cc(C(=O)N[C@H](CN)Cc2cccc(F)c2)sc1Cl [Afuresertib (hydrochloride)]	inactive: 0	inactive: 0	inactive: 0	inactive: 0	inactive: 0	inactive: 0	inactive: 0	inactive: 0	inactive: 0	inactive: 0	inactive: 0	inactive: 0	inactive: 0	inactive: 0	inactive: 0	inactive: 0	inactive: 0	inactive: 0	0	0																				
O=C(Nc1ccncc1)Nc1ccc(-c2nc(N3CCOCC3)nc(N3C4CCC3COC4)n2)cc1 [PKI-179 (hydrochloride)]																					inactive: 0	inactive: 0	inactive: 0	inactive: 0	inactive: 0	inactive: 0	inactive: 0	inactive: 0	inactive: 0	inactive: 0	inactive: 0	inactive: 0	inactive: 0	inactive: 0	inactive: 0	inactive: 0	inactive: 0	inactive: 0	0	3
OCCn1cc(-c2cnc3nnn(Cc4ccc5ncccc5c4)c3n2)cn1	inactive: 0	inactive: 0	inactive: 0	inactive: 0	inactive: 0	inactive: 0	inactive: 0	inactive: 0	inactive: 0	inactive: 0	inactive: 0	inactive: 0	inactive: 0	inactive: 0	inactive: 0	inactive: 0	inactive: 0	inactive: 0	0	0																				
C/C=C1\C(=O)C[C@H]2[C@@H]3CCC4=CC(=O)CC[C@]4(C)[C@H]3CC[C@]12C [Guggulsterone]	inactive: 0	inactive: 0	inactive: 0	inactive: 0	inactive: 0	inactive: 0	inactive: 0	inactive: 0	inactive: 0	inactive: 0	inactive: 0	inactive: 0	inactive: 0	inactive: 0	inactive: 0	inactive: 0	inactive: 0	inactive: 0	0	0																				
CCN(CC)CC(=O)Nc1c(C)cccc1C [Lidocaine]	inactive: 0	inactive: 0	inactive: 0	inactive: 0	inactive: 0	inactive: 0	inactive: 0	inactive: 0	inactive: 0	inactive: 0	inactive: 0	inactive: 0	inactive: 0	inactive: 0	inactive: 0	inactive: 0	inactive: 0	inactive: 0	0	0																				
COc1cc2c(-c3cnn4cc(N5CCC(N6CCN(C)CC6)CC5)cnc34)ccnc2cc1F	inactive: 0	inactive: 0	inactive: 0	inactive: 0	inactive: 0	inactive: 0	inactive: 0	inactive: 0	inactive: 0	inactive: 0	inactive: 0	inactive: 0	inactive: 0	inactive: 0	inactive: 0	inactive: 0	inactive: 0	inactive: 0	0	0																				

Taken from above:
kinase-Nluc reporter destabilization hit call (STK24; 2.5 µM) with `O=C(Nc1ccncc1)Nc1ccc(-c2nc(N3CCOCC3)nc(N3C4CCC3COC4)n2)cc1` [PKI-179 (hydrochloride)] is entered as inactive: 0
kinase-Nluc reporter destabilization hit call (ZAK; 10 µM) with `CNC(=O)c1ccccc1Nc1cc(Nc2ccc(N3CCOCC3)cc2OC)ncc1C(F)(F)F` is entered as inactive: 0
